From the supplement of paper PMC11732987, “Enantioselective OTUD7B fragment discovery through chemoproteomics screening and high-throughput optimisation” (Communications Chemistry, 2025)
The other results are listed elsewhere or left out. The data scatter; read single values as rough.

Sequences of proteins named here, by UniProt entry; tags and fusion partners are left off. A change or cut given only in a name is not applied to a line headed by its entry. Residues count along the entry.
UniProt P40937: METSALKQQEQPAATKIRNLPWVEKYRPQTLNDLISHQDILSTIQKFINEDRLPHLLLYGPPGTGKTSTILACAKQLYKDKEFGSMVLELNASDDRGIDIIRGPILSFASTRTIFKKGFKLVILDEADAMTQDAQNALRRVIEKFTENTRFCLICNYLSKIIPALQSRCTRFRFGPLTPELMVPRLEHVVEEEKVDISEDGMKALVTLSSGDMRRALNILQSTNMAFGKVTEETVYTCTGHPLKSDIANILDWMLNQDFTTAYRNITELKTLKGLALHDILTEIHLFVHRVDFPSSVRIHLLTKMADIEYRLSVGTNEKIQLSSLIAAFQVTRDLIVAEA
UniProt O43353, 411-430: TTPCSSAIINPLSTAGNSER
UniProt P46063: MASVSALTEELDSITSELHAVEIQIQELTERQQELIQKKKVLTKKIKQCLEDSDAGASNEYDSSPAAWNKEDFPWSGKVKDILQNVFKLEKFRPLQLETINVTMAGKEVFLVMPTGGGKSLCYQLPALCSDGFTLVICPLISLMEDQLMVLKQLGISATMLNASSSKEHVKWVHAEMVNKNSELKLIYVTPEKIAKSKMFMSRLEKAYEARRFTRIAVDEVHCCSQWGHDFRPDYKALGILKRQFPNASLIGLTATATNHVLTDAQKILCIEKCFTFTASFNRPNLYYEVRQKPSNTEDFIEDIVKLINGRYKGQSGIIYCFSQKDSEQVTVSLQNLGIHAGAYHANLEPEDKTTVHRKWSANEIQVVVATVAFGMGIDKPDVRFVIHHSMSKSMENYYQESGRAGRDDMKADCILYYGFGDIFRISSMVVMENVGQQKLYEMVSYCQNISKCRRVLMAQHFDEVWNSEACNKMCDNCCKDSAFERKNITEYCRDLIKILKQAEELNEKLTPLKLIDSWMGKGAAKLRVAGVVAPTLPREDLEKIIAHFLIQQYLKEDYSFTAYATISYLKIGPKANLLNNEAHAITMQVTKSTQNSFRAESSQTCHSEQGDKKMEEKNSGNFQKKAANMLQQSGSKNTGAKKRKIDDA
UniProt Q96AA3: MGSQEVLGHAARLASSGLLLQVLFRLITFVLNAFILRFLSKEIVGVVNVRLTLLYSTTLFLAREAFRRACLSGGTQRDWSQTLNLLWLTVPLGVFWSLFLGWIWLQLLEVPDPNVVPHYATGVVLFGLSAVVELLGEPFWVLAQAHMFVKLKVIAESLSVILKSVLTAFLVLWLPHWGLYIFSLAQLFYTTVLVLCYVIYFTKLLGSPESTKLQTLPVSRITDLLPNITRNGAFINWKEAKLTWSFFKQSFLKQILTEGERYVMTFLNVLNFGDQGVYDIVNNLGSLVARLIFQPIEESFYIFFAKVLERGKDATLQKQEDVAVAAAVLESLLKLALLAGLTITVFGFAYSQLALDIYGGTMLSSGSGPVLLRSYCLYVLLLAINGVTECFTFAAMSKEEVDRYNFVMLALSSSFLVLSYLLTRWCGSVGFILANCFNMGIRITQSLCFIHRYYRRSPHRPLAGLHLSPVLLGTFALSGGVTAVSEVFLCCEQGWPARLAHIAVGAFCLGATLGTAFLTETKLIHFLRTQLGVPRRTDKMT
UniProt Q6VN20: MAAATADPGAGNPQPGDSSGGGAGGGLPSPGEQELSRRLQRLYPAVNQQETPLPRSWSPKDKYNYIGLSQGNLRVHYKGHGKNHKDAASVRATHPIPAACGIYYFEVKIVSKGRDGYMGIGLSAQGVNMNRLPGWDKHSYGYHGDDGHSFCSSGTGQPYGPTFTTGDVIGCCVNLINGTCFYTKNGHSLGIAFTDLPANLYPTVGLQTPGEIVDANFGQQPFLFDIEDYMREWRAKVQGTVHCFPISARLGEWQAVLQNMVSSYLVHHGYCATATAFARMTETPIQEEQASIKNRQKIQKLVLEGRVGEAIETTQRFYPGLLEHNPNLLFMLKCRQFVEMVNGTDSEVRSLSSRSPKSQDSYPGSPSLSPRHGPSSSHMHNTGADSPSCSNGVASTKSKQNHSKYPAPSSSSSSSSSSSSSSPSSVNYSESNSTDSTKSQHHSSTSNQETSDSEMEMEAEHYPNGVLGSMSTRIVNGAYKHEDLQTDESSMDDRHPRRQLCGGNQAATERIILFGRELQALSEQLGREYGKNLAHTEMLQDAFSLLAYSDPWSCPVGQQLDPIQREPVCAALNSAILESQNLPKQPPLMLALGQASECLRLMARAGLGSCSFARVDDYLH
UniProt Q14644, 310-329: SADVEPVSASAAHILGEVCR
UniProt Q6GYQ0: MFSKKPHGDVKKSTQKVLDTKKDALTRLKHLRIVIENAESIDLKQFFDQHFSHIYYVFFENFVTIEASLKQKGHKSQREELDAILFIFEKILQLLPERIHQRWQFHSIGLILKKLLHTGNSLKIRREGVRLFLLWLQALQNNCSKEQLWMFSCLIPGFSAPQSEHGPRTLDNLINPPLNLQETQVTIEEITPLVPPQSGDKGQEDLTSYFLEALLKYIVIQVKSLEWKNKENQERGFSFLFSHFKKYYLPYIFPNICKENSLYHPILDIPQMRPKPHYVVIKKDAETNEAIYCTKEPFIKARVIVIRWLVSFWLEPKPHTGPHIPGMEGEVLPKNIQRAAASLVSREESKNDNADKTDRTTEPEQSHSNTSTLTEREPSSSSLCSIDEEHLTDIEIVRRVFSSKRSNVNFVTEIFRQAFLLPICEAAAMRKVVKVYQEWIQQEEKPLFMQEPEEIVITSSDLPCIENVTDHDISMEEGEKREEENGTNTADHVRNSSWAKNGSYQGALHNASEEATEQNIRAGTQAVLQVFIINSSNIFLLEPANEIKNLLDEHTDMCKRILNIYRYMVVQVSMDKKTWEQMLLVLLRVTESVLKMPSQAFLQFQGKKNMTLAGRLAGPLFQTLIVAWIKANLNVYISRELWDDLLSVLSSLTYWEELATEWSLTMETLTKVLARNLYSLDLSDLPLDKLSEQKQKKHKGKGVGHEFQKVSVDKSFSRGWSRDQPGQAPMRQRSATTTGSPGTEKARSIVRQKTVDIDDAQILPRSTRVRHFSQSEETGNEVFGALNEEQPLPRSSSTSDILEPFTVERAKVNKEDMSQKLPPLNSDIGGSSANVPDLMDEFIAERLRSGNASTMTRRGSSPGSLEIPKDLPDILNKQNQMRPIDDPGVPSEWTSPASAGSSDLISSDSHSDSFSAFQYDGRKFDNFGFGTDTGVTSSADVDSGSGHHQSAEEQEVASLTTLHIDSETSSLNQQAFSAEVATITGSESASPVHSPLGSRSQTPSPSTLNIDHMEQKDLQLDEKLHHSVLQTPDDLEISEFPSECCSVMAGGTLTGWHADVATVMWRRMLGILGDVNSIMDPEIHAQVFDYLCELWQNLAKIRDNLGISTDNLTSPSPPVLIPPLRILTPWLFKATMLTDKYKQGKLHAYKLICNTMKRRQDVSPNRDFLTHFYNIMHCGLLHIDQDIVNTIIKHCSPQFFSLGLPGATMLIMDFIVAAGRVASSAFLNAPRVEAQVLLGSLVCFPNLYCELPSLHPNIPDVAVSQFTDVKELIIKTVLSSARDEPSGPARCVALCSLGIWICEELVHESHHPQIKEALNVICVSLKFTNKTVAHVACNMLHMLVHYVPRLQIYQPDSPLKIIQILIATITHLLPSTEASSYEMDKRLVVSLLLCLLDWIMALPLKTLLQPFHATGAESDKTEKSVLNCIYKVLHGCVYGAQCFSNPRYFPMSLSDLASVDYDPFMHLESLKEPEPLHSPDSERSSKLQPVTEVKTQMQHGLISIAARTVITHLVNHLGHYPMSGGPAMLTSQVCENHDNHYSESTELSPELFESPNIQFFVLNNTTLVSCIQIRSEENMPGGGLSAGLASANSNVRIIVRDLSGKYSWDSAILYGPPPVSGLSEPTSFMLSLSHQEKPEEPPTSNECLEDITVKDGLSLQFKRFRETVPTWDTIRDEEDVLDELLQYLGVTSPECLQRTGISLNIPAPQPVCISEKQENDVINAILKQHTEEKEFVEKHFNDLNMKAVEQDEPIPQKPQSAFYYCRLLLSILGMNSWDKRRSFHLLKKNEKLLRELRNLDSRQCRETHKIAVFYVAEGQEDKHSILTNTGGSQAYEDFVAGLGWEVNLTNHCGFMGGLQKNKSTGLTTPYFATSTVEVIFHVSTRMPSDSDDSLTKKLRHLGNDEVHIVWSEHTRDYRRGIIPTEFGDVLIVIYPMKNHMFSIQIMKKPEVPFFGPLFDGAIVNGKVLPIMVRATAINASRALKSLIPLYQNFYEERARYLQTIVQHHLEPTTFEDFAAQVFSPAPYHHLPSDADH
UniProt P50749: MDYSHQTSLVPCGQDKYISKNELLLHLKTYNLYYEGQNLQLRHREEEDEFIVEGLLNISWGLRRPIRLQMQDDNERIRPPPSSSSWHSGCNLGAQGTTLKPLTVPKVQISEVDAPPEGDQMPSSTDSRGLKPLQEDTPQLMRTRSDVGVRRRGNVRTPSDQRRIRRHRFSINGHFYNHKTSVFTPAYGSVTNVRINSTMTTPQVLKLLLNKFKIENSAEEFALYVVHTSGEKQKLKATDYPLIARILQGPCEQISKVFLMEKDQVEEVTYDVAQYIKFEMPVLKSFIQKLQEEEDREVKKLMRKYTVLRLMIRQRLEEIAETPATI
UniProt P84095: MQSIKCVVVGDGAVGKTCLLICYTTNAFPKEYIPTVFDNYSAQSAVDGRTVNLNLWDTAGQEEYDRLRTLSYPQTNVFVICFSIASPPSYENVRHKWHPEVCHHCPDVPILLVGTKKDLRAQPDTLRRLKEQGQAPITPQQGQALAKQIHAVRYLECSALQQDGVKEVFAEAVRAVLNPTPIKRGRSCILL

Legend:
[1] = compound: ClCC(=O)N[C@@H]1CCCc2ccccc12; experiment: log2 mean competition ratio of IA-DTB cysteine labelling (DMSO/compound) (log2 ratio); higher = stronger cysteine engagement by compound; conditions: treatment time: 4 h, cell line lysate: HEK293T
Procedure: (§1)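 IA-DTB competitive cysteine chemoproteomics in HEK293T RIPA lysate. Lysates were treated with compound 29 or 30 at 50 or 200 µM for 4 h, then IA-DTB (500 µM, 1 h), trypsin-digested, NeutrAvidin-enriched and analysed by diaPASEF. Competition ratio = intensity DMSO / intensity compound (n=4 treated, n=64 DMSO); binding: mean log2 CR ≥ 1 and p ≤ 0.05 plus QC filters. Target is the cysteine site.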

[2] = compound: ClCC(=O)N[C@H]1CCCc2ccccc12; experiment: as above; conditions: treatment time: 4 h, cell line lysate: HEK293T
Procedure: as §1

Row | Target | log2 mean competition ratio ([1]; 50 µM) | log2 mean competition ratio ([1]; 200 µM) | log2 mean competition ratio ([2]; 50 µM) | log2 mean competition ratio ([2]; 200 µM)
1 | RFC5 C238 (UniProt P40937) | 0.105 | 0.0298 | -0.255 | -0.129
2 | RIPK2 C414 (UniProt O43353) | -0.15 | -0.0378 | 0.505 | 0.228
3 | RECQL C447 (UniProt P46063) | 0.273 | -0.22 | 0.806 | -0.342
4 | RFT1 C70 (UniProt Q96AA3) | 0.197 | -0.32 | -0.0771 | -0.232
5 | RANBP10 C243 (UniProt Q6VN20) | 0.659 | 0.146 | 0.331 | 0.00651
6 | RASA3 C328 (UniProt Q14644) | -0.171 | 0.52 | -0.404 | 0.0298
7 | RALGAPA1 C257 (UniProt Q6GYQ0) | 0.00099 | -0.613 | 0.133 | -0.333
8 | RASSF2 C251 (UniProt P50749) | 0.000576 | 0.169 | 0.101 | 0.011
9 | RHOG C157 (UniProt P84095) | 0.117 | 0.00583 | 0.0776 | -0.0167

Just log2 mean competition ratio ([1]; 200 µM) and log2 mean competition ratio ([2]; 50 µM) (two entries from above):
Row | Target | log2 mean competition ratio ([1]; 200 µM) | log2 mean competition ratio ([2]; 50 µM)
3 | RECQL C447 (UniProt P46063) | -0.22 | 0.806
4 | RFT1 C70 (UniProt Q96AA3) | -0.32 | -0.0771
